Measurements reported in publication PMC4598845.
No constants are given. Whether binding was seen depends on the method and setting. Some binding calls cover weakened binding; strength is not graded here. One block for each molecule: values may come before it.

The chains behind the UniProt entries cited, without tags or fusion partners. Residues count along the entry.
UniProt P08603, residues 19-1231: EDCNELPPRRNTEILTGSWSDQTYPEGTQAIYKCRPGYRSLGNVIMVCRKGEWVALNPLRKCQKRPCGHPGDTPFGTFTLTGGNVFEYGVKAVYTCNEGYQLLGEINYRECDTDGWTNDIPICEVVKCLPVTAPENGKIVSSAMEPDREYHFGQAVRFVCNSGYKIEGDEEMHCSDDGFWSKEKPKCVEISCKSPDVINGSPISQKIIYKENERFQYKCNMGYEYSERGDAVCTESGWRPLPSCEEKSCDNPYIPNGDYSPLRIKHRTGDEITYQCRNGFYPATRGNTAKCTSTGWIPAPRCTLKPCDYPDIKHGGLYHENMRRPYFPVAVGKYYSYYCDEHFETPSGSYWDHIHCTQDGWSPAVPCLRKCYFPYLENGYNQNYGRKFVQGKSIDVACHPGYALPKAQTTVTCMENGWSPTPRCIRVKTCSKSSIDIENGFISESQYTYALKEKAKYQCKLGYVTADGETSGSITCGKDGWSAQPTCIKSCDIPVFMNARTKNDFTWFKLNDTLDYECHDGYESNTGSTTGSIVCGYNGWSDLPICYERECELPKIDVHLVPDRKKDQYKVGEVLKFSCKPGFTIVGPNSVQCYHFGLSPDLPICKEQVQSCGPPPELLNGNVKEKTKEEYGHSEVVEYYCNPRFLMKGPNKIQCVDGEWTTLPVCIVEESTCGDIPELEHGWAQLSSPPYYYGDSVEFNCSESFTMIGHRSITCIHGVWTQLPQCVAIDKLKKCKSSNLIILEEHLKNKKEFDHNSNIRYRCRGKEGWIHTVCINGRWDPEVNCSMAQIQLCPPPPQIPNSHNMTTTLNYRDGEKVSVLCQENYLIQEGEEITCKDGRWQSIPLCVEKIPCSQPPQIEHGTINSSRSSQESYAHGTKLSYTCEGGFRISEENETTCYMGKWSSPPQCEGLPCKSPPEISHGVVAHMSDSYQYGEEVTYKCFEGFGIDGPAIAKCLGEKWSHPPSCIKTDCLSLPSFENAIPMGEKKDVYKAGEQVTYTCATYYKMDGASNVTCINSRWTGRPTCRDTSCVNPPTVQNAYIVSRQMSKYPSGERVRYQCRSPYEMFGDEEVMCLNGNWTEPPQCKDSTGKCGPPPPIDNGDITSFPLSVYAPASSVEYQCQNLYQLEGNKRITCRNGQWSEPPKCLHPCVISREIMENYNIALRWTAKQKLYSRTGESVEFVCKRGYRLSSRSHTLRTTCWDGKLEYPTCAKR

How the values were obtained:
[1] = target: T1, recombinant human CTRP6 (C1q/TNF-related protein 6), Aviscera Bioscience (human) (UniProt Q9BXI9); assay: SPR; rhCTRP6 immobilised on a CM5 chip by amine coupling (about 100 RU); analyte C3(H2O) 0-500 nM or factor H; BIAcore 2000; 10 mM HEPES pH 7.4, 150 mM NaCl, 3 mM EDTA, 0.005% surfactant P20; 20 μl/min; both purified
T1 sequence: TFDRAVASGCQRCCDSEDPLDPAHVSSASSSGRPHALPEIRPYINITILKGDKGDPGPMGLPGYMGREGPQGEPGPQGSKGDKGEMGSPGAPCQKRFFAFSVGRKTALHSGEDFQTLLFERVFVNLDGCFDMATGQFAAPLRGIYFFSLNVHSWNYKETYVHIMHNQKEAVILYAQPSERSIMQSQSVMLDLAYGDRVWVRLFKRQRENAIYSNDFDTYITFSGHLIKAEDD

[2] = target: T1, recombinant human CTRP6 (C1q/TNF-related protein 6), Aviscera Bioscience (human); assay: SEC; 1 μg/100 μl rhCTRP6 on 16/60 Sephacryl S-300 in PBS, 0.5 ml/min; both purified
[3] = target: mouse CTRP6 in serum (mouse (endogenous in C57BL/6 serum)) (UniProt Q6IR41); assay: SEC; 100 μl C57BL/6 mouse serum on 16/60 Sephacryl S-300 in PBS, 0.5 ml/min; CTRP6 in fractions by ELISA

binding [1]: no binding
Molecule: human factor H (from UniProt P08603 19-1231)

binding [2]: no binding
B1: recombinant human CTRP6 (C1q/TNF-related protein 6), Aviscera Bioscience (protein, UniProt Q9BXI9 47-278)
chain: TFDRAVASGCQRCCDSEDPLDPAHVSSASSSGRPHALPEIRPYINITILKGDKGDPGPMGLPGYMGREGPQGEPGPQGSKGDKGEMGSPGAPCQKRFFAFSVGRKTALHSGEDFQTLLFERVFVNLDGCFDMATGQFAAPLRGIYFFSLNVHSWNYKETYVHIMHNQKEAVILYAQPSERSIMQSQSVMLDLAYGDRVWVRLFKRQRENAIYSNDFDTYITFSGHLIKAEDD

binding [3]: binds
B2: mouse CTRP6 in serum (protein, UniProt Q6IR41 25-264)
chain: VPTEETTFGESVASHLPKGCRRCCDPEDLMSSDDTVQAPVSPYVLPEVRPYINITILKGDKGDRGPTGTPGKPGKNGTRGDRGSQGVKGDKGQAGSPGSSCQTHYSAFSVGRKTGLHSSENFLSLLFDRVFVNTDGHFDMATGSFVAPLRGLYFFSLNVHSWNYKETYVHIVHNEQAVVILYAQPSERSIMQSQSVMLPLVPGDRVWVRLFKRERENGIYSDDVDTYITFSGHLIKAEDN
